Values are relative to the signal before dosing, not to a vehicle control; the signal also falls without drug.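 Fibroblast labels name human fibroblasts: mostly primary ones from tissues such as uterus (C12385, HUF), lung (H6013), bone (Hs27A), adrenal (HADF) and skin (WS1), plus mammary HMF and breast cancer-associated Hs343T. The cancer cells are basal-like or mesenchymal-like triple-negative breast cancer lines. The paper calls a changed response a hit when it shifts by more than 3x the replicate standard deviation. The tissue of the other fibroblasts is not given here.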
Tested on: Hs578T
Test: relative JC-1 red fluorescence (viability) vs pre-drug, coculture with fibroblast (fraction); higher = more viable cancer cells
Experimental: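 JC-1 labelled TNBC cells cocultured 1:1 (1,500 cells each) with CellTrace Violet stained primary or stromal fibroblasts in 384-well plates in FluoroBrite medium, treated with one of 42 anticancer drugs at 0.1, 1, 10 or 100 uM. JC-1 red fluorescence (mitochondrial integrity in cancer cells only) was read by plate reader every 8 h for 72 h. Values are normalised to each well's pre-drug value. The stock of one drug was tenfold lower, so its dose labels may be too high.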

N.N.[Cl][Pt][Cl] [Cisplatin]
relative JC-1 red fluorescence
Conditions | 8 h | 16 h | 24 h | 32 h | 40 h | 48 h | 56 h | 64 h | 72 h
10 µM | 0.916 | 0.783 | 0.714 | 0.665 | 0.599 | 0.553 | 0.521 | 0.488 | 0.48
100 µM | 0.798 | 0.506 | 0.475 | 0.454 | 0.412 | 0.383 | 0.387 | 0.362 | 0.365

relative JC-1 red fluorescence
Conditions | 8 h | 16 h | 24 h | 32 h | 40 h | 48 h | 56 h | 64 h | 72 h
10 µM, coculture fibroblast: C12385 | 0.825 | 0.7144 | 0.6509 | 0.541 | 0.469 | 0.438 | 0.4189 | 0.4082 | 0.404
10 µM, coculture fibroblast: H6013 | 0.861 | 0.783 | 0.695 | 0.639 | 0.597 | 0.582 | 0.563 | 0.556 | 0.535
10 µM, coculture fibroblast: H6019 | 0.752 | 0.694 | 0.727 | 0.626 | 0.617 | 0.625 | 0.621 | 0.628 | 0.628
10 µM, coculture fibroblast: H6076 | 0.921 | 0.828 | 0.765 | 0.731 | 0.685 | 0.668 | 0.639 | 0.637 | 0.625
10 µM, coculture fibroblast: H6231 | 0.8929 | 0.7899 | 0.718 | 0.683 | 0.619 | 0.59 | 0.546 | 0.534 | 0.52
10 µM, coculture fibroblast: HADF | 0.88 | 0.794 | 0.675 | 0.595 | 0.569 | 0.556 | 0.535 | 0.526 | 0.506
10 µM, coculture fibroblast: HCFa | 0.822 | 0.688 | 0.573 | 0.515 | 0.483 | 0.481 | 0.467 | 0.465 | 0.445
10 µM, coculture fibroblast: HCPF | 0.952 | 0.864 | 0.804 | 0.759 | 0.707 | 0.685 | 0.668 | 0.639 | 0.622
10 µM, coculture fibroblast: HHSteC | 0.854 | 0.7684 | 0.674 | 0.621 | 0.58 | 0.547 | 0.53 | 0.515 | 0.496
10 µM, coculture fibroblast: HMF | 0.87 | 0.778 | 0.7225 | 0.698 | 0.653 | 0.627 | 0.603 | 0.59 | 0.579
10 µM, coculture fibroblast: HPFa | 0.876 | 0.782 | 0.71 | 0.658 | 0.639 | 0.634 | 0.614 | 0.609 | 0.586
10 µM, coculture fibroblast: HUF | 0.828 | 0.7004 | 0.652 | 0.558 | 0.511 | 0.492 | 0.469 | 0.471 | 0.468
10 µM, coculture fibroblast: Hs27A | 0.8896 | 0.8411 | 0.7731 | 0.737 | 0.687 | 0.672 | 0.65 | 0.653 | 0.614
10 µM, coculture fibroblast: Hs343T | 0.955 | 0.867 | 0.791 | 0.752 | 0.677 | 0.661 | 0.625 | 0.598 | 0.59
10 µM, coculture fibroblast: WS1 | 0.8002 | 0.717 | 0.669 | 0.567 | 0.501 | 0.486 | 0.47 | 0.467 | 0.4686
100 µM, coculture fibroblast: C12385 | 0.693 | 0.476 | 0.45 | 0.368 | 0.343 | 0.334 | 0.322 | 0.332 | 0.335
100 µM, coculture fibroblast: H6013 | 0.739 | 0.543 | 0.476 | 0.441 | 0.409 | 0.4 | 0.378 | 0.369 | 0.354
100 µM, coculture fibroblast: H6019 | 0.682 | 0.532 | 0.541 | 0.436 | 0.398 | 0.377 | 0.355 | 0.345 | 0.333
100 µM, coculture fibroblast: H6076 | 0.869 | 0.583 | 0.502 | 0.489 | 0.449 | 0.441 | 0.426 | 0.413 | 0.413
100 µM, coculture fibroblast: H6231 | 0.846 | 0.569 | 0.48 | 0.474 | 0.412 | 0.4008 | 0.382 | 0.3772 | 0.376
100 µM, coculture fibroblast: HADF | 0.7999 | 0.614 | 0.541 | 0.51 | 0.488 | 0.482 | 0.458 | 0.451 | 0.43
100 µM, coculture fibroblast: HCFa | 0.753 | 0.623 | 0.577 | 0.533 | 0.49 | 0.484 | 0.47 | 0.466 | 0.44
100 µM, coculture fibroblast: HCPF | 0.89 | 0.639 | 0.5206 | 0.5021 | 0.454 | 0.442 | 0.452 | 0.421 | 0.42
100 µM, coculture fibroblast: HHSteC | 0.783 | 0.595 | 0.542 | 0.515 | 0.491 | 0.475 | 0.463 | 0.453 | 0.437
100 µM, coculture fibroblast: HMF | 0.849 | 0.56 | 0.488 | 0.473 | 0.425 | 0.405 | 0.394 | 0.38 | 0.37
100 µM, coculture fibroblast: HPFa | 0.7462 | 0.597 | 0.552 | 0.513 | 0.485 | 0.472 | 0.449 | 0.438 | 0.414
100 µM, coculture fibroblast: HUF | 0.753 | 0.583 | 0.586 | 0.491 | 0.445 | 0.429 | 0.411 | 0.408 | 0.403
100 µM, coculture fibroblast: Hs27A | 0.871 | 0.74 | 0.685 | 0.645 | 0.619 | 0.622 | 0.586 | 0.575 | 0.54
100 µM, coculture fibroblast: Hs343T | 0.8483 | 0.485 | 0.375 | 0.357 | 0.315 | 0.299 | 0.291 | 0.275 | 0.274
100 µM, coculture fibroblast: WS1 | 0.74 | 0.61 | 0.581 | 0.466 | 0.416 | 0.405 | 0.384 | 0.386 | 0.383
